Data reported in patent US20120138147A1, “PHOTOELECTRIC CONVERSION ELEMENT, MANUFACTURING METHOD OF THE SAME AND ELECTRONIC EQUIPMENT” (Sony Corporation, priority 2010, published 2012).
Where two headings read alike, the source gives them in different places.

What was measured:
[1] = Photoelectric conversion efficiency and internal resistance of dye sensitized photoelectric conversion element, additive in electrolytic solution (Z907 dye); conditions: additive in MPN electrolytic solution
[2] = Dependence of the effects of the additives on the solvent species of the electrolytic solution
[3] = solvent AN (acetonitrile), cited from earlier work; for Eff (photoelectric conversion efficiency): molecular weight 41.05
[4] = Photoelectric conversion efficiency and internal resistance of dye sensitized photoelectric conversion element, additive in electrolytic solution (Z991 dye)
[5] = solvent AN/VN mixture, apparent molecular weight 47.36
[6] = solvent MAN, molecular weight 71.08
[7] = solvent MPN, molecular weight 85.1

Row | Compound | Eff (photoelectric conversion efficiency) [1] | Rs (internal resistance) [1] | also measured
1 | COc1ccccn1 [2-MeO—Py] | 7.4% | 34.3 Ω | –
2 | Brc1cccnc1 [3-Br—Py] | 7.3% | 36.9 Ω | –
3 | COC(=O)c1cccnc1 [3-COOMe—Py] | 7.2% | 39.5 Ω | –
4 | COc1cccnc1 [3-MeO—Py] | 7.8% | 34.0 Ω | –
5 | N#Cc1ccncc1 [4-CN—Py] | 6.7% | 41.3 Ω | –
6 | CCc1ccncc1 [4-Et—Py, 4-ethylpyridine] | 8.2% | 32.1 Ω | ΔEff=Eff(4-Et-Py)−Eff(TBP) ([2]; solvent AN/VN mixture): 0.03; Eff (photoelectric conversion efficiency) [2, 5]: 8.72; ΔEff=Eff(4-Et-Py)−Eff(TBP) ([2]; solvent MAN): 0.09; Eff (photoelectric conversion efficiency) [2, 6]: 8.05; ΔEff=Eff(4-Et-Py)−Eff(TBP) ([2]; solvent MPN): 0.36; Eff (photoelectric conversion efficiency) [2, 7]: 8.22; Eff (photoelectric conversion efficiency) [3]: 3.4; ΔEff=Eff(4-Et-Py)−Eff(TBP) [3]: −4
7 | CNc1ccncc1 [4-MeNH—Py] | 6.2% | 45.6 Ω | –
8 | COc1ccncc1 [4-MeO—py, 4-methoxypyridine] | 8.4% | 31.0 Ω | Eff (photoelectric conversion efficiency) [4]: 9.2%; Rs (internal resistance) [4]: 26.1 Ω
9 | Nc1ccncc1 [4-NH2—Py] | 7.1% | 41.7 Ω | –
10 | Cc1ccncc1 [4-pic] | 7.9% | 34.3 Ω | –
11 | Cc1ccnc(C)c1 [24-Lu, 2,4-lutidine] | 8.3% | 29.9 Ω | –
12 | Cc1ccc(C)nc1 [25-Lu, 2,5-lutidine] | 8.3% | 30.5 Ω | Eff (photoelectric conversion efficiency) [4]: 9.2%; Rs (internal resistance) [4]: 27.1 Ω
13 | Cc1cccc(C)n1 [26-Lu, 2,6-lutidine] | 8.3% | 30.6 Ω | Eff (photoelectric conversion efficiency) [4]: 9.4%; Rs (internal resistance) [4]: 24.8 Ω
14 | Cc1ccncc1C [34-Lu, 3,4-lutidine] | 8.0% | 31.9 Ω | –
15 | Cc1cncc(C)c1 [35-Lu, 3,5-lutidine] | 7.9% | 32.0 Ω | –
16 | c1ccc2c(c1)ccc1ncccc12 [56-benzoquinoline] | 7.6% | 33.3 Ω | –
17 | Cn1ccnc1 [Mlm, N-methylimidazole] | 8.0% | 33.0 Ω | –
18 | Cn1cnc2ccccc21 [NMB] | 7.9% | 35.8 Ω | –
19 | c1ccncc1 [Py] | – | 33.6 Ω | –
20 | CC(C)(C)c1ccncc1 [TBP, 4-tert-butylpyridine] | 7.9% | 33.8 Ω | Eff (photoelectric conversion efficiency) [2, 5]: 8.69; Eff (photoelectric conversion efficiency) [2, 6]: 7.96; Eff (photoelectric conversion efficiency) [2, 7]: 7.86; Eff (photoelectric conversion efficiency) [4]: 8.6%; Rs (internal resistance) [4]: 34.2 Ω; Eff (photoelectric conversion efficiency) [3]: 7.4
21 | c1ccc2nc3ccccc3cc2c1 [acridine] | 7.3% | 31.3 Ω | –
22 | c1ccc(-c2ccccn2)nc1 [bpy] | 7.4% | 37.2 Ω | –
23 | c1ccc2cnccc2c1 [isoquinoline] | 7.7% | 36.1 Ω | –
24 | c1cnccn1 [pyrazine] | 6.8% | 40.4 Ω | –
25 | c1ccnnc1 [pyridazine] | 6.5% | 32.0 Ω | –
26 | c1cncnc1 [pyrimidine] | – | 35.5 Ω | –
27 | c1ccc2ncccc2c1 [quinoline] | 7.6% | 32.9 Ω | –
28 | c1cscn1 [thiazole] | – | 32.5 Ω | –
29 | Me-pyrazole | 7.5% | 32.7 Ω | –
